Values quoted from earlier work as cited in publication PMC9880397 (Heliyon, 2023).

System: HEPG-2 cells
Conditions: read-out: IC50 towards HEPG-2 cells; cited from earlier work

For `N.N.[Cl][Pt][Cl]` [cisplatin], the IC50 is given as 28.5 µM.
